# Assay results: the supplement of paper PMC10338343
# ± gives the standard deviation. The list shows a part of the results, in another mix than the full data. Many entries were measured with a wide error.
# Tested on: MILI (PIWIL2) piRISC loaded with L1MC piRNA (26 nt)
# Assay: pre-steady-state target cleavage rate (min^-1); MIWI and MILI are mouse PIWI proteins and EfPiwi is from a freshwater sponge; tags in brackets are library labels; higher = faster piRNA-guided slicing of the target
# Details: guide: L1MC piRNA 5'p-UAACUAAAUACUAUGCAAGCUGUAGG; auxiliary factor: 500 nM mouse GTSF1
# Method: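 Cleave-'n-Seq: a library of target RNAs (target site embedded in constant flanks, ACAGCATTCCGCGTTAGTGATATCCG... 5' flank; DNA-blocked outside the site) at 0.1 nM was incubated with 1 nM active mouse MILI or MIWI piRISC (synthetic 5'-monophosphorylated piRNA guide) with or without 500 nM mouse GTSF1 at 33 °C for 1 min to 16 h. Uncleaved targets were sequenced and normalised to non-target controls, and the pooled three trials were fitted to a burst-and-steady-state model to give the pre-steady-state cleavage rate (min^-1; k3 is constrained to at most 1e-4). Sequence is the target site only; target names encode pairing extent (gX:gY) and contiguous / 1-mismatch / 2-mismatch / bulge geometry. Fits with R² ≤ 0 are excluded.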
row,Sequence,pre-steady-state target cleavage rate
1,UCCUGCUACAGCUUGCAUACUAUUAAGUUA,0.0719 ± 0.018
2,UCCUGCUACAGGAAGCAUAGUAUUUAGUUA,0.282 ± 0.014
3,UCCUGGUACAGCUUGCAUAGUAUUAGUUA,0.327 ± 0.053
4,UCCUGGUACAGCUUGCAUAGUAUAUUAGUUA,0.26 ± 0.039
5,UCCUGGAUGUGCUUGCAUAGUAUAAAGUUA,0.0611 ± 0.011
6,UCCUGGAUGAGCUUGCAAUCUAUUUAGUUA,0.00333 ± 0.0036
7,UCCUCCUACAGCUUGCUAAGUAUUUACAAA,0.0519 ± 0.013
8,UCCUGCUACAGCUUCCAUUGUAUUUAGUUA,0.157 ± 0.029
9,UCCUGGAUGUCGAUGCUUAGUAUUAAGUUA,0.00316 ± 0.0048
10,UCCUGGAACUGCUUGGAUAGUAUUUAGUUA,0.222 ± 0.013
11,UCCUGGAUGUCGAUGCAUUGUAUUUAGUUA,0.0091 ± 0.0037
12,UCCUCCAACAGCUUGCAUAGUUUUUAGUUA,0.0522 ± 0.0087

# Same assay, conditions: guide: L1MC piRNA 5'p-UAACUAAAUACUAUGCAAGCUGUAGG; auxiliary factor: none (no GTSF1)
row,Sequence,pre-steady-state target cleavage rate
1,UCCUGCUACAGCUUGCAUACUAUUAAGUUA,0.00141 ± 0.0043
2,UCCUGCUACAGGAAGCAUAGUAUUUAGUUA,0.00969 ± 0.0027
3,UCCUGGUACAGCUUGCAUAGUAUAUUAGUUA,0.0117 ± 0.0038
4,UCCUGGAUGAGCUUGCAUAGUAAUUAGAUA,0.00109 ± 0.0063
5,UCCUGCUUCAGCUUGCAUAGAAUUUAGUUA,0.00238 ± 0.0027
6,UCCUGGAUGUGCUUGCAUAGUAUAAAGUUA,0.00318 ± 0.0025
7,UCCUGCUACAGCUUGCAUAGUUAUUACAAA,0.00155 ± 0.0047
8,UCCUGGAUGAGCUUGCAAUCUAUUUAGUUA,0.00124 ± 0.0034
9,UCCUCCUACUCCUUGCAUAGUAUUUACAAA,0.0008 ± 0.0055
10,UCCUGGAUGUGCUUGCAUAGUAUUUAGCUUA,0.00274 ± 0.0033
11,UCCUGGAUGUCGAACGUAAGUAUUAAGUAA,0.000132 ± 0.036
12,UCCUGCUACAGCUUGCAUAAGUAUUUAGUUA,0.0016 ± 0.0045
13,UCCUGGAACAGCUUGCUUAGUAUUUACAAA,0.00122 ± 0.0052
14,UCCUGGUACAGCUUGCAUAGUUUUUACUUA,0.00154 ± 0.0055
15,UCCUCCUACAGCUUCCAUAGUUUUUAGUUA,0.000821 ± 0.0059
16,UCCUGGAACAGCUUGGUAAGUAUUUAGAAA,0.000792 ± 0.0071
17,UCCUCCUACAGCUUGCUAAGUAUUUACAAA,0.00113 ± 0.0049
18,UCCUGGAACAGCUUGCAUACAUUUUACAAA,0.000223 ± 0.012
19,UCCUGGAUGAGCUUGCUUAGUAUUAAGUUA,0.00168 ± 0.0043
20,UCCUGCUACAGCUUCCAUUGUAUUUAGUUA,0.00322 ± 0.0022
21,UCCUGCUACAGCUUGCAUAGUAUAAUGUAA,0.000948 ± 0.006
22,UCCUGGUACAGCUUGCAUUGUAUUAAGUUA,0.00118 ± 0.0065
23,UCCUGGAUGUCGAUGCUUAGUAUUAAGUUA,0.000344 ± 0.012
24,UCCUGCUACAGCUUGCAUAGUAUAUAGAAA,0.000995 ± 0.0065
25,UCCUGGAACUGCUUGGAUAGUAUUUAGUUA,0.0109 ± 0.0023
26,UCCUGGAUGUCGAUGCAUUGUAUUUAGUUA,0.00226 ± 0.0025
27,UCCUCCAACAGCUUGCAUAGUUUUUAGUUA,0.00502 ± 0.0021
28,UCCUGGAUGUCGUAGCAUAGUAUUUACUUA,0.00103 ± 0.0053
